According to article PMC3841102, “Activation of Smurf E3 Ligase Promoted by Smoothened Regulates Hedgehog Signaling through Targeting Patched Turnover” (PLoS Biology, 2013):
These are yes or no findings as the source states them, for the method shown. For part of these data: Binding seen in cells or lysates may run through a third protein. Some results given as binding are weak or reduced against the parent protein; the word gives no strength. Sequences can lack the tags named with a protein.

T1: full-length Drosophila Smurf (two-hybrid bait) (Drosophila) (UniProt Q9V853)
T1 sequence: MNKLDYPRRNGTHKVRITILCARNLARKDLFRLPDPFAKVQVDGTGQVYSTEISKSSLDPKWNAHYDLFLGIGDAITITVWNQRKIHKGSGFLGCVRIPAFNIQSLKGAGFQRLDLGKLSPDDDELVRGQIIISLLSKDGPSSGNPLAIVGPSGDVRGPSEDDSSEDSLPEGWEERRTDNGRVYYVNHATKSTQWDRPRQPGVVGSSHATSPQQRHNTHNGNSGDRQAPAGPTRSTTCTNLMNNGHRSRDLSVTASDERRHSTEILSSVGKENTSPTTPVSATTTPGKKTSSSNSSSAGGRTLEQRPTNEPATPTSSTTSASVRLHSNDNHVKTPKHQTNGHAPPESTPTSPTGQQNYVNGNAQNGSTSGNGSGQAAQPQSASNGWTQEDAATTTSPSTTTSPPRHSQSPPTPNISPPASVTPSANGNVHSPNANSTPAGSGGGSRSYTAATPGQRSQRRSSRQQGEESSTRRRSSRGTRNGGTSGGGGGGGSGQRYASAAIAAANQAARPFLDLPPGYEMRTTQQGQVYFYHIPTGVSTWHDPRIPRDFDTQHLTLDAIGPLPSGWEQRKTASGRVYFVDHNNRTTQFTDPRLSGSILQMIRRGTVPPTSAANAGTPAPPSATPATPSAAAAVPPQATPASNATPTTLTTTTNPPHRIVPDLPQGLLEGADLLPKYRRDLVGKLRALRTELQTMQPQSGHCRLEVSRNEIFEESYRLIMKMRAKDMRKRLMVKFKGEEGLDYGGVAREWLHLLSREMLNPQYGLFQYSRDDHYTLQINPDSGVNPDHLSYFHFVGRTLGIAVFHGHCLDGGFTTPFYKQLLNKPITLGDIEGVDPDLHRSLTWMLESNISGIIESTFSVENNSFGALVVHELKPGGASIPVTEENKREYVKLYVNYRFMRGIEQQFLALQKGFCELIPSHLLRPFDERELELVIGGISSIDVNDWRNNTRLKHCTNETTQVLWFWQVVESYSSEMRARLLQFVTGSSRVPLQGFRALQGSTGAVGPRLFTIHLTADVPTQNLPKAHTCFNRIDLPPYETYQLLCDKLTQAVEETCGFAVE

T2: Flag-tagged Smurf (Drosophila) (UniProt Q9V853)
T2 sequence: T1 sequence

B1: Ptc-B4/5 (aa 1174-1286), two-hybrid prey clone (domain or fragment, UniProt P18502 1174-1286)
chain: PQSWKSSNSSIQMPNDWTYQPREQRPASYAAPPPAYHKAAAQQHHQHQGPPTTPPPPFPTAYPPELQSIVVQPEVTVETTHSDSNTTKVTATANIKVELAMPGRAVRSYNFTS
B2: Ptc^CTD (two-hybrid fusion) (domain or fragment, UniProt P18502 1101-1286)
chain: ILLSMVGPEAELVPLEHPDRISTPSPLPVRSSKRSGKSYVVQGSRSSRGSCQKSHHHHHKDLNDPSLTTITEEPQSWKSSNSSIQMPNDWTYQPREQRPASYAAPPPAYHKAAAQQHHQHQGPPTTPPPPFPTAYPPELQSIVVQPEVTVETTHSDSNTTKVTATANIKVELAMPGRAVRSYNFTS
B3: Ptc-L1 (aa 1198-1286), two-hybrid prey clone (domain or fragment, UniProt P18502 1198-1286)
chain: RPASYAAPPPAYHKAAAQQHHQHQGPPTTPPPPFPTAYPPELQSIVVQPEVTVETTHSDSNTTKVTATANIKVELAMPGRAVRSYNFTS
B4: Smoothened (Smo), tagged, in S2 cells (receptor, UniProt P91682 32-1036)
chain: SSAKFGSTTPASAQQSDVELEPINGTLNYRLYAKKGRDDKPWFDGLDSRHIQCVRRARCYPTSNATNTCFGSKLPYELSSLDLTDFHTEKELNDKLNDYYALKHVPKCWAAIQPFLCAVFKPKCEKINGEDMVYLPSYEMCRITMEPCRILYNTTFFPKFLRCNETLFPTKCTNGARGMKFNGTGQCLSPLVPTDTSASYYPGIEGCGVRCKDPLYTDDEHRQIHKLIGWAGSICLLSNLFVVSTFFIDWKNANKYPAVIVFYINLCFLIACVGWLLQFTSGSREDIVCRKDGTLRHSEPTAGENLSCIVIFVLVYYFLTAGMVWFVFLTYAWHWRAMGHVQDRIDKKGSYFHLVAWSLPLVLTITTMAFSEVDGNSIVGICFVGYINHSMRAGLLLGPLCGVILIGGYFITRGMVMLFGLKHFANDIKSTSASNKIHLIIMRMGVCALLTLVFILVAIACHVTEFRHADEWAQSFRQFIICKISSVFEEKSSCRIENRPSVGVLQLHLLCLFSSGIVMSTWCWTPSSIETWKRYIRKKCGKEVVEEVKMPKHKVIAQTWAKRKDFEDKGRLSITLYNTHTDPVGLNFDVNDLNSSETNDISSTWAAYLPQCVKRRMALTGAATGNSSSHGPRKNSLDSEISVSVRHVSVESRRNSVDSQVSVKIAEMKTKVASRSRGKHGGSSSNRRTQRRRDYIAAATGKSSRRRESSTSVESQVIALKKTTYPNASHKVGVFAHHSSKKQHNYTSSMKRRTANAGLDPSILNEFLQKNGDFIFPFLQNQDMSSSSEEDNSRASQKIQDLNVVVKQQEISEDDHDGIKIEELPNSKQVALENFLKNIKKSNESNSNRHSRNSARSQSKKSQKRHLKNPAADLDFRKDCVKYRSNDSLSCSSEELDVALDVGSLLNSSFSGISMGKPHSRNSKTSCDVGIQANPFELVPSYGEDELQQAMRLLNAASRQRTEAANEDFGGTELQGLLGHSHRHQREPTFMSESDKLKMLLLPSK
B5: Smo^ΔN (556-1,036 a.a of Smo) (domain or fragment, UniProt P91682 556-1036)
chain: TPSSIETWKRYIRKKCGKEVVEEVKMPKHKVIAQTWAKRKDFEDKGRLSITLYNTHTDPVGLNFDVNDLNSSETNDISSTWAAYLPQCVKRRMALTGAATGNSSSHGPRKNSLDSEISVSVRHVSVESRRNSVDSQVSVKIAEMKTKVASRSRGKHGGSSSNRRTQRRRDYIAAATGKSSRRRESSTSVESQVIALKKTTYPNASHKVGVFAHHSSKKQHNYTSSMKRRTANAGLDPSILNEFLQKNGDFIFPFLQNQDMSSSSEEDNSRASQKIQDLNVVVKQQEISEDDHDGIKIEELPNSKQVALENFLKNIKKSNESNSNRHSRNSARSQSKKSQKRHLKNPAADLDFRKDCVKYRSNDSLSCSSEELDVALDVGSLLNSSFSGISMGKPHSRNSKTSCDVGIQANPFELVPSYGEDELQQAMRLLNAASRQRTEAANEDFGGTELQGLLGHSHRHQREPTFMSESDKLKMLLLPSK
B6: Ptc^CTD (C-terminal tail of Ptc) expressed in S2 cells (domain or fragment, Drosophila, UniProt P18502 1101-1286, looked up)
chain: B2 chain
notes: Patched (Ptc), Drosophila, C-terminal tail; also called C-tail of Ptc; Ptc C-tail; source: S2 cells, transfected, in lysate

target: T1, full-length Drosophila Smurf (two-hybrid bait) (Drosophila); experiment: two-hybrid; AH109 yeast; bait vector pGBKT7, prey vector pACT2; growth on permissive (-Leu/-Trp) and restrictive (-Ade/-His/-Leu/-Trp) medium

| Binder | binding |
| --- | --- |
| B1 | binds |
| B2 | binds |
| B3 | binds |

target: T2, Flag-tagged Smurf (Drosophila); experiment: co-IP; transfected S2 cells, lysates after 48 h; anti-Flag M2 affinity gel or anti-Myc affinity gel; NaCl adjusted to 500 mM, washes with 500 mM NaCl; Western blot; for Smo with Smurf (Figure 5C,D) cells treated with Hh medium for 12 h

| Binder | binding |
| --- | --- |
| B4 | binds |
| B5 | binds |
| B6 | binds |
